This passage reports binding results from patent publication US20070256193A1.

These are yes or no findings as the source states them, for the method shown. Some results given as binding are weak or reduced against the parent protein; the word gives no strength. For part of these data: Where a sequence is shown, tags or fusion partners need not be part of it.

Test [1] deals with T1, RPW8 (RPW8.1 or RPW8.2 not specified) (Arabidopsis) (UniProt Q9C5Z6).
T1 sequence: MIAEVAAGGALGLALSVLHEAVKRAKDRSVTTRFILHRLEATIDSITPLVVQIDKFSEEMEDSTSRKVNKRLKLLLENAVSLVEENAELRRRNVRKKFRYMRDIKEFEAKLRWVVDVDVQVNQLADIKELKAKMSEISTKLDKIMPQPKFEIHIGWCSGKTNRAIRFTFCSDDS
In words: yeast two-hybrid.

The target in test [2] is T2, RPW8.1, in the yeast two-hybrid system (Arabidopsis) (UniProt Q9C5Z7).
T2 sequence (looked up): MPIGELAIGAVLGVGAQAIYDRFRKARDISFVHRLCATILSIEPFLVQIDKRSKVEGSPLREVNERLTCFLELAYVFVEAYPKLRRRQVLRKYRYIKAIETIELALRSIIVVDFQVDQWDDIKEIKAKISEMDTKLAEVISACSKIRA
In words: yeast two-hybrid.

Test [3] concerns the target T1, RPW8 (RPW8.1 or RPW8.2 not specified) (Arabidopsis). In words: yeast two-hybrid screen for RPW8-interacting partners.
Test [4] concerns the target T3, RPW8.2, as bait in the yeast two-hybrid system (Arabidopsis) (UniProt Q9C5Z6).
T3 sequence (looked up): T1 sequence
In words: yeast two-hybrid (Matchmaker LexA), Arabidopsis cDNA library screened with RPW8.2 as bait.

For test [5], the target named is T4, YFP^C:14-3-3a (carboxyl-terminal yellow fluorescent protein fragment fused to 14-3-3a) (Arabidopsis) (UniProt P48349).
T4 sequence (looked up): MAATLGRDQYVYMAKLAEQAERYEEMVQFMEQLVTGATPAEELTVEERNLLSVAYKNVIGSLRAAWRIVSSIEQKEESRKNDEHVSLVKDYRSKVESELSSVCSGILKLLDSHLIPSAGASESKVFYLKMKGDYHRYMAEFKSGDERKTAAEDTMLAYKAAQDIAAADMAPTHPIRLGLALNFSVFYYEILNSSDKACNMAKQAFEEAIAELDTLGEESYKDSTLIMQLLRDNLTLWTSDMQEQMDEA
In words: bimolecular fluorescence complementation (BiFC), YFP fluorescence.

Test [6] addresses T4, YFP^C:14-3-3a (carboxyl-terminal yellow fluorescent protein fragment fused to 14-3-3a) (Arabidopsis). In words: bimolecular fluorescence complementation (BiFC) in leaves of a transgenic Arabidopsis line.

B1: 14-3-3a, in the yeast two-hybrid system (protein, Arabidopsis, UniProt P48349 1-248, looked up)
chain: T4 sequence (looked up)
Consider B1, for which the binding result in test [1] is listed as “binds”.

B2: defense-associated protein phosphatase type 2C one (DAPP1), as prey clone in the yeast two-hybrid system (enzyme)
chain: MGKFCCFTSASEVVGGQSSSRSGKGRSDEGMIKYGFSLVKGKANHPMEDYHVANFINIQDHELGLFAIYDGHMGDSVPAYLQKRLFSNILKEGEFWVDPRRSIAKAYEKTDQAILSNSSDLGRGGSTAVTAILINGRKLWIANVGDSRAVLSHGGAITQMSTDHEPRTERSSIEDRGGFVSNLPGDVPRVNGQLAVSRAFGDKGLKTHLSSEPDIKEATVDSQTDVLLLASDGIWKVMTNEEAMEIARRVKDPQKAAKELTAEALRRESKDDISCVVVRFR
With B2, the binding result in test [2], in test [3] and in test [4] was “binds” each time.

B3: YFP^N:DAPP1 (amino-terminal yellow fluorescent protein fragment fused to DAPP1) (protein, not shown: large carriers)
chain: B2 chain
Regarding B3, the binding result in test [5] and in test [6] was “binds” each time.
